Some of the results follow.

By UniProt entry, the sequences of proteins in these tests, tags left out.
UniProt Q0JBA9, entry or part of it: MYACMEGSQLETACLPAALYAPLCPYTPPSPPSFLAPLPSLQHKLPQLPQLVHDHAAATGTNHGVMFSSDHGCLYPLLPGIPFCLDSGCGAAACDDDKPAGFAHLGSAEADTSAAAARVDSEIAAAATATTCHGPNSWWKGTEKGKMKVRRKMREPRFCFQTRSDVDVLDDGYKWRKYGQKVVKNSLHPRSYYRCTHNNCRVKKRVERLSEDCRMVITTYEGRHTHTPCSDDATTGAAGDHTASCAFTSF

In this test the target is OsWRKY34 (Oryza sativa, UniProt Q0JBA9 1-250). Description: protein-binding microarray (RPBM); PBS, 2% BSA, 51.3 ng/ul salmon testes DNA, 50 uM zinc acetate, 200 nM TF, 25 C, 1 h; high values mean tight binding. As to conditions: protein: recombinant; tags: N-terminal polyhistidine and DsRed monomer fusion (pET32a); label: CyDye5-dUTP incorporated in the synthesized complementary strand; 3' TTTTT single-stranded linker to array surface; dsDNA, one strand shown. Put shortly: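 Per-feature fluorescence intensity (arbitrary units), read on an Axon 4000B scanner, is the binding signal. Transcription factors carrying an N-terminal polyhistidine tag and DsRed fusion were expressed in E. coli BL21-CodonPlus and purified on Ni–NTA. A custom Agilent array, made double-stranded by primer extension with Cy5-dUTP and blocked with 2% BSA, was incubated with 200 nM protein in PBS, 2% BSA, salmon testes DNA and 50 µM zinc acetate at 25 °C for 1 h and then washed.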
Take “GAGCTAGATGGGTTGGGAAGTTGAGGGAGATGGTCGAGGTCGGAGTCACCTAGTGCAG”: the binding signal is 9350 fluorescence intensity (a.u.). In the case of “CCGGCACCACAATGAAAATCTAAGACTTTTGCCACTACACCGGAGTCACCTAGTGCAG” it was 8320 fluorescence intensity (a.u.); in that of “GGCCGGATTCTTTGGTGTTTTCTGAACCTTCTTTACTTGTCGGAGTCACCTAGTGCAG”, 11700 fluorescence intensity (a.u.); in that of “CGAGTCCAGCACAGTCGACTGCCACCACCACCGCTGCCGCCGGAGTCACCTAGTGCAG”, 8890 fluorescence intensity (a.u.).

For “CTTCTTTTCACAGTGTTGCTGCTCTCTCTTCTCAACTATGCGGAGTCACCTAGTGCAG”, the binding signal is 10900 fluorescence intensity (a.u.).

With “TCCCTTGTTTCTGATCTTTCTTTCTCCTTCATCAAGGCACCGGAGTCACCTAGTGCAG”, the binding signal is 12000 fluorescence intensity (a.u.). In the case of “TGTTGGTGTTGCGGGCGGCGGTGCTCGGCCGTGGTGACGACGGAGTCACCTAGTGCAG” it was 9440 fluorescence intensity (a.u.); in that of “GTTTTCTCTCTTGCGGTATATTATTACACACTCACACGCTCGGAGTCACCTAGTGCAG”, 8690 fluorescence intensity (a.u.). For the sequence “TTCTATCCATCTCTCCATTCATTCATCTCTCTCCATTTCCCGGAGTCACCTAGTGCAG”, the binding signal was 9490 fluorescence intensity (a.u.). For the sequence “AACATGCATCACTCCATTTACACTTTTTACACTTTTATCACGGAGTCACCTAGTGCAG”, the binding signal is 12600 fluorescence intensity (a.u.).

As for “GATTAGTGTAATACAGGCAACATTCTCATTCTCATTCTCACGGAGTCACCTAGTGCAG”, the binding signal was 8100 fluorescence intensity (a.u.). As to “TGGATAAATGTATTGTTGTATGCTGAATTTCTGGTTTGATCGGAGTCACCTAGTGCAG”, the binding signal was 9720 fluorescence intensity (a.u.). To “CACTCACGCATCTGCCCGAACTTGATCCATCCACAGCAATCGGAGTCACCTAGTGCAG” belongs 8650 fluorescence intensity (a.u.); to “CTCACCTCGCCGTGCCTCCTCGACGCCATCTTCCGCCGTTCGGAGTCACCTAGTGCAG”, 9500 fluorescence intensity (a.u.). In the case of “TTCCCGTGTCTTATCCACTCCCAACGTTCCATTCTGTGGACGGAGTCACCTAGTGCAG” it was 8510 fluorescence intensity (a.u.). For “TTTTTCCTTTCGTCACATTAATTTCTCGTTCGTATGTCCGCGGAGTCACCTAGTGCAG”, the binding signal was 11900 fluorescence intensity (a.u.). To “TTCCCACAGCGAACGTGATGCCTCGTTTCAAAGCTGTTTTCGGAGTCACCTAGTGCAG” belongs 8150 fluorescence intensity (a.u.); to “GCTCTCTTGGCCTTAGGTTATCATGGTACGTGTTTCCCTACGGAGTCACCTAGTGCAG”, 9610 fluorescence intensity (a.u.). To “ATCTCCTCGCTTTTTGCTTCGTTCTCCGCTCCGGTGACCCCGGAGTCACCTAGTGCAG” belongs 9660 fluorescence intensity (a.u.); to “CCTTCACCTTTCTTCTCCTCCATCCATCCAGAAAAAAAATCGGAGTCACCTAGTGCAG”, 8590 fluorescence intensity (a.u.); to “ATAACGCTTTCGTCTCTCCTGACAGGATCCGGTGACACCGCGGAGTCACCTAGTGCAG”, 8250 fluorescence intensity (a.u.). In the case of “ACACACTACTACTACTCTTCTCCCTCTCCATCTCTTCCCTCGGAGTCACCTAGTGCAG” it was 8320 fluorescence intensity (a.u.); in that of “TTGTATAGTTAAGGCACCCCGTATATTTGGTTTTGTGGTTCGGAGTCACCTAGTGCAG”, 10400 fluorescence intensity (a.u.). With “GCATCAATTGGTTTTGGCCTACTAAGTCATGTTTACAACCCGGAGTCACCTAGTGCAG”, the binding signal was 8280 fluorescence intensity (a.u.). In the case of “CCTTGGTTCTCTTTCGTTGCCTGTTCTGTTCTTCCAACGCCGGAGTCACCTAGTGCAG” it was 11800 fluorescence intensity (a.u.). For “TGTTATTACAATATAAATGGTGCACGTTGCTCTTGTTTACCGGAGTCACCTAGTGCAG”, the binding signal was 8780 fluorescence intensity (a.u.). Take “GACCATCCAATCGTGACTCAACCTACTAACAACTGATTCCCGGAGTCACCTAGTGCAG”: the binding signal was 9380 fluorescence intensity (a.u.).

As to “CGAATCAACCAACCAACACCTGCCTGATTCATCTTCTCGACGGAGTCACCTAGTGCAG”, the binding signal was 8080 fluorescence intensity (a.u.).

Regarding “CTCGCCGCCGGCCTCCTCCACCACCACCGACGACTCCGACCGGAGTCACCTAGTGCAG”, the binding signal was 8430 fluorescence intensity (a.u.). Regarding “CCGCGACTACCATTTCGACTGATAGATCACCCACCGGATCCGGAGTCACCTAGTGCAG”, the binding signal is 9150 fluorescence intensity (a.u.).

For “GGGTTTACATACGGTTTTGGTTTGAATCTGTCGCAGGTCGCGGAGTCACCTAGTGCAG”, the binding signal is 8220 fluorescence intensity (a.u.). To “CAGTCGTCGTTGCGTTGCTTCTGCTGCACTTCTCTCTCTCCGGAGTCACCTAGTGCAG” belongs 10800 fluorescence intensity (a.u.); to “GTGTGATTTTTTTTTGCTCTAATTAATGTGATAAATTTTCCGGAGTCACCTAGTGCAG”, 10600 fluorescence intensity (a.u.). To “ATTTAGGGGTGTGTGTGTGGTGTATCTTCATTCTTCAATGCGGAGTCACCTAGTGCAG” belongs 10200 fluorescence intensity (a.u.). With “TCACTCTTTTTCTTACCTGCTCGATCGTAGTTATTTAATTCGGAGTCACCTAGTGCAG”, the binding signal is 11900 fluorescence intensity (a.u.).

As to “CCTGACCATCCATCCGTTCCTCCGATCAGTTCCAACTTCCCGGAGTCACCTAGTGCAG”, the binding signal was 8640 fluorescence intensity (a.u.). In the case of “GATTCCTGCCTTGATTAGCATGTCACACATCGATGTCAGCCGGAGTCACCTAGTGCAG” it was 8860 fluorescence intensity (a.u.); in that of “GCCAGCAATTTTGCTCTTATTATCTTTTCACCTGCCGTGACGGAGTCACCTAGTGCAG”, 10300 fluorescence intensity (a.u.).

Turning to “TTCCCTGCTCCTGTCTCCACCGTTCTACTCGCCTCGAAAGCGGAGTCACCTAGTGCAG”, the binding signal is 10600 fluorescence intensity (a.u.). For “GGACGGATATGTTGTGTGTGAAGCTCTGGTTGGCCATTTGCGGAGTCACCTAGTGCAG”, the binding signal is 8670 fluorescence intensity (a.u.). In the case of “CCACTTGCAGCGTTCGAACCACCGAGGTTGACCAGGCCCCCGGAGTCACCTAGTGCAG” it was 9670 fluorescence intensity (a.u.); in that of “CCTATTCAACGATCTCCTCCGATTATCCAAATCAACATAACGGAGTCACCTAGTGCAG”, 8410 fluorescence intensity (a.u.).

For the origin of these results see publication PMC7819943, “Rice protein-binding microarrays: a tool to detect cis-acting elements near promoter regions in rice”.
